The values below come from article doi:10.1101/758722.

By UniProt entry, the sequences of proteins in these tests, tags left out.
UniProt P27694: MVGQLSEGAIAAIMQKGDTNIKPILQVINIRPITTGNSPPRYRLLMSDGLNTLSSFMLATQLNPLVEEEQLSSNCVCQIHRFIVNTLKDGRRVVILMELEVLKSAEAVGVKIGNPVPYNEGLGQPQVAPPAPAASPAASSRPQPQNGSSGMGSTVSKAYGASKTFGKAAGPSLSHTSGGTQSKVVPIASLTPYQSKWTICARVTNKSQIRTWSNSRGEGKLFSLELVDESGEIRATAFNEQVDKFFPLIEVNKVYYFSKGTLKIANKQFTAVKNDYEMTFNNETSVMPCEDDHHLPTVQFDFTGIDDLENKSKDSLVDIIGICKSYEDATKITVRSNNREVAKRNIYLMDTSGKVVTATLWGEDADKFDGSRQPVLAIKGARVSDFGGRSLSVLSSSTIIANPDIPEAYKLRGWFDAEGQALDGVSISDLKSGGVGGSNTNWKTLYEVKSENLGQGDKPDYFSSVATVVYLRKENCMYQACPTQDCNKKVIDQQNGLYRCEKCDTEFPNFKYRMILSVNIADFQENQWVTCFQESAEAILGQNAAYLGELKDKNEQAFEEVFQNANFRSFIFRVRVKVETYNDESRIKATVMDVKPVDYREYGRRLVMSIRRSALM
UniProt P15927: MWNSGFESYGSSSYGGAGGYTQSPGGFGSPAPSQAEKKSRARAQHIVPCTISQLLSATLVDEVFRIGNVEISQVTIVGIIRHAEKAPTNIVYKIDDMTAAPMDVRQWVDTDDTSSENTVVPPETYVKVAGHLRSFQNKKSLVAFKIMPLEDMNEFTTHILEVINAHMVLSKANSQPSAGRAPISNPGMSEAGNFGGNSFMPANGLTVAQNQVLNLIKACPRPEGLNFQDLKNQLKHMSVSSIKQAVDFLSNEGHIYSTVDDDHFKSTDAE

These are yes or no findings as the source states them, for the method shown. For some of these results: In cells and extracts the contact can be indirect. Some entries that bind do so weakly or less than the wild type. For some of these results: Tags and fused reporters may be left off the sequences shown.

One assay concerns the target RPA1 (UniProt P27694). As to the kind of experiment: co-IP.
A further assay addresses RPA2 (UniProt P15927). As to the kind of experiment: co-IP.
For another assay, the target named is MBP-tagged RPA1 (UniProt P27694). As to the kind of experiment: pull-down.
The next assay addresses MBP-tagged RPA2 (UniProt P15927). As to the kind of experiment: pull-down.

B1: C17orf53 (protein, UniProt Q8N3J3 1-647)
chain: MACSLQKLFAVEEEFEDEDFLSAVEDAENRFTGSLPVNAGRLRPVSSRPQETVQAQSSRLLLLHPTAPSEALGLPDLDLCLPASSTPSADSRPSCIGAAPLRPVSTSSSWIGNQRRVTVTEVLRETARPQSSALHPLLTFESQQQQVGGFEGPEQDEFDKVLASMELEEPGMELECGVSSEAIPILPAQQREGSVLAKKARVVDLSGSCQKGPVPAIHKAGIMSAQDESLDPVIQCRTPRPPLRPGAVGHLPVPTALTVPTQQLHWEVCPQRSPVQALQPLQAARGTIQSSPQNRFPCQPFQSPSSWLSGKAHLPRPRTPNSSCSTPSRTSSGLFPRIPLQPQAPVSSIGSPVGTPKGPQGALQTPIVTNHLVQLVTAASRTPQQPTHPSTRAKTRRFPGPAGILPHQQSGRSLEDIMVSAPQTPTHGALAKFQTEIVASSQASVEEDFGRGPWLTMKSTLGLDERDPSCFLCTYSIVMVLRKQAALKQLPRNKVPNMAVMIKSLTRSTMDASVVFKDPTGEMQGTVHRLLLETCQNELKPGSVLLLKQIGVFSPSLRNHYLNVTPNNLVHIYSPDSGDGSFLKPSQPFPKDSGSFQHDVAAKPEEGFRTAQNLEAEASPEEELPEADDLDGLLSELPEDFFCGTSS
Regarding B1, the binding result with RPA1 and in the assay with RPA2 was “binds” throughout.

B2: GST-C17orf53 (protein, UniProt Q8N3J3 1-647)
chain: B1 chain
B2: the binding entry with MBP-tagged RPA1 and with MBP-tagged RPA2 was “binds” in each case.
